Test results: patent US20210391038A1, “SPECIFICALLY-SHAPED CRYSTAL OF COMPOUND AND METHOD FOR PRODUCING SAME” (TOWA PHARMACEUTICAL CO., LTD., priority 2018, published 2021)
At least one structure is not confirmed: it was looked up by name or label, or the drawing left a doubt.

Legend:
Format in all cases: physicochemical
[1] = Sphericity from SEM images (ImageJ); conditions: SEM image analysis, mean of particles
From the text: In the present description, “spherulite” means a crystal aggregate (polycrystal) which has a radial or concentric thin layered structure and has a spherical outer shape. Whether the crystal obtained by the method of the present invention is a spherulite or not can be determined, for example, by observing the outer shape of the crystal using SEM. For example, it can be discriminated by cutting the crystal aggregate and observing the internal structure thereof using SEM. […] The sphericity can be calculated by the following method.
When an image of particles taken by SEM is analyzed using image processing software ImageJ, a coordinate group representing the position of pixels forming the outline of a particle is obtained. […]
When the particle is a true sphere, θ(k) is 360/D, and the closer the particle is to a true sphere, the closer θ(k) is to this value. The error between θ(k) and the true value 360/D is evaluated by the root-mean-square error (RMSE) of the following formula: […]
The sphericity is 1 in a true sphere, and the closer the particle is to a true sphere, the closer the sphericity is to 1. […] The sphericity is measured for five or more particles to calculate the mean. […]

[2] = Particle size distribution (d50, sharpness index)
From the text: d10 in the present description is a value obtained from a particle size distribution analyzer, and represents a particle size of a particle corresponding to 10% of accumulation from the smaller particle side in the particle size distribution based on the volume.
d50 in the present description is a value obtained from a particle size distribution analyzer, and represents a particle size of a particle corresponding to 50% of accumulation from the smaller particle side in the particle size distribution based on the volume.
“Sharpness index” in the present description is an index representing the uniformity of a particle size of a particle in a powder, and a sharpness index of 1.0 represents a powder having the most uniform particle size. The closer the sharpness index is to 1.0, the more the particle size of the powder is uniform. Specifically, the sharpness index represents a value calculated using the following formula from the values of d10, d50, and d90 measured by a particle size distribution analyzer:
Images for measuring the number of particles were obtained by a scanner GT-X830 manufactured by SEIKO EPSON CORPORATION. The powder X-ray diffraction (XRD) was measured using a desktop X-ray diffraction device MiniFlex300 manufactured by Rigaku Corporation. […] The particle strength was measured using a particle hardness measuring device NEW GRANO manufactured by OKADA SEIKO CO., LTD. […]

[3] = Measurement of critical degree of supersaturation of spherulite; conditions: for Critical degree of supersaturation S Experimental value: solvent 1 EtOH, solvent 2 TBME, solvent 2/solvent 1 ratio 15
From the text: “Supersaturated solution” in the present description means a solution in a state of containing a solute exceeding the solubility. As the degree of supersaturation, “degree of supersaturation” can be used. Regarding the degree of supersaturation, when the concentration (mass concentration (g/g)) of a compound dissolved in a supersaturated solution is defined as C and the solubility of the compound is defined as Cs, the degree of supersaturation S can be represented by the following formula: […]
“Critical degree of supersaturation” in the present description means the lowest degree of supersaturation required to obtain a specifically-shaped crystal. […] The value of a critical degree of supersaturation varies depending on the shape of a crystal. For example, all of values of a critical degree of supersaturation required to obtain a plate crystal, a critical degree of supersaturation required to obtain a needle crystal, and a critical degree of supersaturation required to obtain a spherulite are different. […]
The actual measured value of the critical degree of supersaturation (S*) can be measured as follows:
(1) 100 particles are observed by SEM. (2) 5 to 10 particles whose shape is close to a desired specific shape are selected, and the shape is evaluated. In particular, when the desired specific shape is a sphere, the sphericity is evaluated. (3) Based on the evaluation index of the shape, whether the selected particles have the desired specific shape or not is determined. In particular, when the desired specific shape is a sphere, the case where the sphericity is 0.60 or more is determined as a spherulite. (4) The above-mentioned operation is performed for each sample having a different degree of supersaturation during crystallization, and the minimum value of a degree of supersaturation having the specifically-shaped particles is determined as the critical degree of supersaturation. […]
The critical degree of supersaturation of a spherulite of ketotifen fumarate was determined as follows. […]

Row | Compound | sphericity of the spherulite [1] | sharpness index of the crystal thus obtained ([2]; calculated from d10, d50, d90) | d50 of the crystal thus obtained ([2]; dry particle size distribution, volume based) [μm] | actual measured value of the critical degree of supersaturation [3] | Critical degree of supersaturation S Experimental value ([3]; entry 45, crystallization 0 °C) | Critical degree of supersaturation S Experimental value ([3]; entry 46, crystallization 20 °C)
1 | CC#CCn1c(N2CCC[C@@H](N)C2)nc2c1c(=O)n(Cc1nc(C)c3ccccc3n1)c(=O)n2C [Example 21, linagliptin] | 0.98±0.01 | 2.42 | 69.1 |  |  | 
2 | CC#CCn1c(N2CCC[C@@H](N)C2)nc2c1c(=O)n(Cc1nc(C)c3ccccc3n1)c(=O)n2C [Linagliptin] |  |  |  | 7.9 | 7.9 | 6.7
